Data reported in PMC7031342.
Results are given in words; binding and its absence hold for the method and conditions named. Binding seen in cells or lysates may run through a third protein. Here binding means that the protein was enriched with, or labelled near, the bait; the list need not be complete.

Amino acid sequences for entries named in this document (tags omitted).
UniProt Q00765: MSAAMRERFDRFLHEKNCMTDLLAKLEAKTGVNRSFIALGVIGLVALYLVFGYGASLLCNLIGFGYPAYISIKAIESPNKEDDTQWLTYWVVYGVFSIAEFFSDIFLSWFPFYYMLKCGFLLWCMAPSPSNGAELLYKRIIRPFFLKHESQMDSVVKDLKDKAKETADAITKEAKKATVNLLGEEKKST

Target: CnVA-tagged (StrepII-6xHis, 3xFlag) REEP5 (human) (UniProt Q00765)
Assay: affinity purification with mass spectrometry; nickel-His purification of CnVA-REEP5 from transfected HEK293 cells against untransfected controls; Q Exactive Plus, iBAQ

binding: binds
B1: ATL3 (HEK293) (protein, UniProt Q6DD88 1-541)
chain: MLSPQRVAAAASRGADDAMESSKPGPVQVVLVQKDQHSFELDEKALASILLQDHIRDLDVVVVSVAGAFRKGKSFILDFMLRYLYSQKESGHSNWLGDPEEPLTGFSWRGGSDPETTGIQIWSEVFTVEKPGGKKVAVVLMDTQGAFDSQSTVKDCATIFALSTMTSSVQIYNLSQNIQEDDLQQLQLFTEYGRLAMDEIFQKPFQTLMFLVRDWSFPYEYSYGLQGGMAFLDKRLQVKEHQHEEIQNVRNHIHSCFSDVTCFLLPHPGLQVATSPDFDGKLKDIAGEFKEQLQALIPYVLNPSKLMEKEINGSKVTCRGLLEYFKAYIKIYQGEDLPHPKSMLQATAEANNLAAAASAKDIYYNNMEEVCGGEKPYLSPDILEEKHCEFKQLALDHFKKTKKMGGKDFSFRYQQELEEEIKELYENFCKHNGSKNVFSTFRTPAVLFTGIVALYIASGLTGFIGLEVVAQLFNCMVGLLLIALLTWGYIRYSGQYRELGGAIDFGAAYVLEQASSHIGNSTQATVRDAVVGRPSMDKKAQ
